Positions count from the first letter of the chain named. Results are given in words; binding and its absence hold for the method and conditions named. For some of these results: Binding seen in cells or lysates may run through a third protein. Some binding calls cover weakened binding; strength is not graded here. For some of these results: Where a sequence is shown, tags or fusion partners need not be part of it.
How the values were obtained:
Flag-VANGL2 [1] = target: T1, Flag-VANGL2 (UniProt Q9ULK5); assay: co-IP; in vitro binding: Flag-tagged proteins purified from HEK293T (anti-Flag beads, 500 mM NaCl wash, Flag peptide elution) incubated at 37°C for 1 h, then IP (anti-VANGL2 antibody in Fig 3C) and immunoblot; both purified
T1 sequence: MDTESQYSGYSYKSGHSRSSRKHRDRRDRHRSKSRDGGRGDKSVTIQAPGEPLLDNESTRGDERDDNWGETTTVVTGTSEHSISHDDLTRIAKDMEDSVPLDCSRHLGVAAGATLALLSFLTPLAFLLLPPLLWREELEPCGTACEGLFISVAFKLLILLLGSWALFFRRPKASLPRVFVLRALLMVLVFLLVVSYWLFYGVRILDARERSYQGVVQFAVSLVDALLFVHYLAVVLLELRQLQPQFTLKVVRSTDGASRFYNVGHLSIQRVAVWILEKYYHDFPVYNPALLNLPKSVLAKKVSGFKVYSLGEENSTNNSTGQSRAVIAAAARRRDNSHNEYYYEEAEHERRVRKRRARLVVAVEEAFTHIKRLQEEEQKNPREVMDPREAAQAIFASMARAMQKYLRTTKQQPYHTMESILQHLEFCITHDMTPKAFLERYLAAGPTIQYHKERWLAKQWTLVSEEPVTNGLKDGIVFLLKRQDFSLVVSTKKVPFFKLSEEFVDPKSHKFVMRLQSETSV

The chains behind the UniProt entries cited, without tags or fusion partners. Where a name states a change or a piece, a line headed by the entry shows the natural chain unless it says otherwise.
UniProt Q96P20: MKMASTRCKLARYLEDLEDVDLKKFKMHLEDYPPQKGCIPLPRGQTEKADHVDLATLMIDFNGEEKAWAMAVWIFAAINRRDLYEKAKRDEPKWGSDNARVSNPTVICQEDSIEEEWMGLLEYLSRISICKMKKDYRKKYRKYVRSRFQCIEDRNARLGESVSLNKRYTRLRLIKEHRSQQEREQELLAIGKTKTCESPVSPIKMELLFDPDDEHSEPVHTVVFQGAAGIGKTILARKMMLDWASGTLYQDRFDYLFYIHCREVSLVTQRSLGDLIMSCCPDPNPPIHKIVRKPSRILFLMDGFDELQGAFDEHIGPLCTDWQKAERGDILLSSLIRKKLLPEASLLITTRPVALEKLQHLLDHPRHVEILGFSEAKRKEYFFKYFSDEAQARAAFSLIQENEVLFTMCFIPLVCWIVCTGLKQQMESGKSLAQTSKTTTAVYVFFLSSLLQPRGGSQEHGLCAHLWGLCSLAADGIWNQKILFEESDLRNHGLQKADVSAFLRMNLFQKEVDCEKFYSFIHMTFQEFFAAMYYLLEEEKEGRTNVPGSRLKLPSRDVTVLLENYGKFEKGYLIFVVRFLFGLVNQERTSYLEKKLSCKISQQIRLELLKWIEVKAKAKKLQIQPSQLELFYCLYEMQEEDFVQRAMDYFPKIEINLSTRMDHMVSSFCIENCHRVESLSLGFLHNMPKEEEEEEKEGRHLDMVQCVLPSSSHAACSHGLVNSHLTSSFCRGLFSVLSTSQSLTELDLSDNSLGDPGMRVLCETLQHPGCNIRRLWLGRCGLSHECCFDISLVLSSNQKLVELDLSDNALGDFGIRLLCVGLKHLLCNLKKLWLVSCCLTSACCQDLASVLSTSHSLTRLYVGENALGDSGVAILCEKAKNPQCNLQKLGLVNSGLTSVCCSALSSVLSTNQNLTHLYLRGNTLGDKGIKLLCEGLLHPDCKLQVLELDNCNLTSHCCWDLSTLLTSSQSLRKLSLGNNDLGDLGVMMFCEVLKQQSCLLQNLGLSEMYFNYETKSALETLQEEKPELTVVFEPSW
UniProt Q8K3K8: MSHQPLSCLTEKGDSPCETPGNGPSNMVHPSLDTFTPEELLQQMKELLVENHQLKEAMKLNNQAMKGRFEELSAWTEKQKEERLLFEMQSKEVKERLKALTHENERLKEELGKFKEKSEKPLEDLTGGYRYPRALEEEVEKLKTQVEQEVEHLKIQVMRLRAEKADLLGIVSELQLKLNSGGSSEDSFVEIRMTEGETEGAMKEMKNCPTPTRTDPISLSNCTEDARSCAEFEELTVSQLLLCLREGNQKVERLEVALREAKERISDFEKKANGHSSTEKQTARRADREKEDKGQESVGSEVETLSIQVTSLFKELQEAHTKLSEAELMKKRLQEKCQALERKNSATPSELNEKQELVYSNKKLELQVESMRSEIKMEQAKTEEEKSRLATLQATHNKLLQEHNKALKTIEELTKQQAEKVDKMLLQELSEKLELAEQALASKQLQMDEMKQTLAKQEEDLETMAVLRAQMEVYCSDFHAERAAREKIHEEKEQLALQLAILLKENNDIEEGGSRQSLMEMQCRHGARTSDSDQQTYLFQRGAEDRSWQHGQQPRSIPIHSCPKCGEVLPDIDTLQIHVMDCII
UniProt Q96CV9: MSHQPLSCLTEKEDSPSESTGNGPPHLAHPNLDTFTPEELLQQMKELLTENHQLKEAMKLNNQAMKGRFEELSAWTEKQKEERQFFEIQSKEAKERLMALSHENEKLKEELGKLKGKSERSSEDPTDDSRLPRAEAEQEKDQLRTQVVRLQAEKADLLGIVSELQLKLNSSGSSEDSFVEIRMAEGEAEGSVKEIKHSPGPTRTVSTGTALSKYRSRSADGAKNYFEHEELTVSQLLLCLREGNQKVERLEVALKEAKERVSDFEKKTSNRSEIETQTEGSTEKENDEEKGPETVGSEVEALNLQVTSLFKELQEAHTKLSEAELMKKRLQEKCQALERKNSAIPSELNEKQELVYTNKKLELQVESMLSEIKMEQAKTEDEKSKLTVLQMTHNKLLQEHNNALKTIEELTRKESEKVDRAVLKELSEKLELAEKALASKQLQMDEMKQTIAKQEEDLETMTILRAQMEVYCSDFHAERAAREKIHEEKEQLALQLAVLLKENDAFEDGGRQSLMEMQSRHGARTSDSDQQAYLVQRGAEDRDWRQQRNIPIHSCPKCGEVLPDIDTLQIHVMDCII
UniProt Q8R4B8: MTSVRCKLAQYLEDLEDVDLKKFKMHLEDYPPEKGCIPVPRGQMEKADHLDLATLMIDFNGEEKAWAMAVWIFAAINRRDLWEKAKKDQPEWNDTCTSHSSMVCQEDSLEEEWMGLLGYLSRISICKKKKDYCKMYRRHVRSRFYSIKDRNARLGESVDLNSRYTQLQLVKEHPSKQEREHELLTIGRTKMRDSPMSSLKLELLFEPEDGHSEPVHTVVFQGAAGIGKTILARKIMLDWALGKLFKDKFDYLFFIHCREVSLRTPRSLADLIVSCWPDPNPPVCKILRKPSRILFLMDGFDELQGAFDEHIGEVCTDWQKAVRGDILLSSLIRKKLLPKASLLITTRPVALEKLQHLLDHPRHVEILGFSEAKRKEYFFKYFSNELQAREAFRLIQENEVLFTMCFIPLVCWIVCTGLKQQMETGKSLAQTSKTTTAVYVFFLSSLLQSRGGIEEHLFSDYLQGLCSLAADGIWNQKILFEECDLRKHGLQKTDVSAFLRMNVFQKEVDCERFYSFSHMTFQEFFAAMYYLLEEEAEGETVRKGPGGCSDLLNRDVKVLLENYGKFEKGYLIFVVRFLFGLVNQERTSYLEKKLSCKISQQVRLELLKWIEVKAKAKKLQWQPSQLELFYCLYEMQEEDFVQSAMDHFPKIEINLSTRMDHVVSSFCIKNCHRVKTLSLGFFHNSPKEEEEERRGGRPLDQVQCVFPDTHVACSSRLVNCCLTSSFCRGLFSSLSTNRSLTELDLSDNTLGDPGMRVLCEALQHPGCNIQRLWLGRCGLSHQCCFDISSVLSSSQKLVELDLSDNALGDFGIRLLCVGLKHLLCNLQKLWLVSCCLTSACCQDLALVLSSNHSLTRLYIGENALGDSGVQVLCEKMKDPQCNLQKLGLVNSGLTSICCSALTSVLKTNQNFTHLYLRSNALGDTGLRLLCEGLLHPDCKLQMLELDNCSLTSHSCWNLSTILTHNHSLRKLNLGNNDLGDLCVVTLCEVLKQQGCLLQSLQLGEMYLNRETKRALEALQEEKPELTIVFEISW

[2] = target: T2, HA-VANGL2 (Van-Gogh-like 2) (UniProt Q9ULK5); assay: co-IP; three-step co-IP: HEK293T with Flag-NLRP3, HA-VANGL2, GFP-MARCH8 and Myc-OPTN; Flag-beads, Flag peptide elution; HA-beads, HA peptide elution; GFP-beads; western blot
T2 sequence: T1 sequence

[3] = target: Flag-NLRP3 (NLR family pyrin domain containing 3) (UniProt Q96P20); assay: as above
[4] = target: T3, Flag-MARCH8 (recombinant, purified) (UniProt Q5T0T0); assay: co-IP; in vitro binding: Flag-tagged proteins purified from HEK293T (anti-Flag beads, 500 mM NaCl wash, Flag peptide elution) incubated at 37°C for 1 h, then IP (anti-VANGL2 antibody in Fig 3C) and immunoblot; both purified
T3 sequence: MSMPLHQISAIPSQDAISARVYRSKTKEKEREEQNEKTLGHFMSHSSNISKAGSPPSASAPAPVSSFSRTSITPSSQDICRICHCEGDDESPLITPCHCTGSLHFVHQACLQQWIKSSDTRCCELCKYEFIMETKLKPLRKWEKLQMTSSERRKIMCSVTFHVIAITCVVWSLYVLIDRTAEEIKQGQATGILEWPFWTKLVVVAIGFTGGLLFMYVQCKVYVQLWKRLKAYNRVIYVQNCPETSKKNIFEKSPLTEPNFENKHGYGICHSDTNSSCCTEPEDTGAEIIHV

[5] = target: Flag-NLRP3 (NLR family pyrin domain containing 3) (UniProt Q96P20); assay: as above
Flag-NLRP3 K823R = Flag-NLRP3 K823R (UniProt Q96P20); assay: co-IP; exogenous: tagged plasmids co-transfected into HEK293T for 24 h (some panels with CQ 50 μM 6 h, VANGL2 siRNA or VANGL2 overexpression); whole-cell lysates with anti-Flag or anti-Myc agarose beads; washed 5 times with low-salt lysis buffer (150 mM NaCl, 1% Triton X-100); immunoblot
[6] = target: Flag-NLRP3 (NLR family pyrin domain containing 3) (UniProt Q96P20); assay: as above
[7] = target: OPTN, endogenous in mouse peritoneal macrophages (mouse (endogenous in peritoneal macrophages)) (UniProt Q8K3K8); assay: co-IP; endogenous: mouse PEMs (WT or Vangl2 ΔM/ΔM) treated with LPS 100 ng/ml 6 h (some panels with CQ 50 μM); whole-cell lysates incubated overnight with antibody plus Protein A/G beads; immunoblot
[8] = target: T4, VANGL2, endogenous in mouse peritoneal macrophages (mouse (endogenous in peritoneal macrophages)) (UniProt Q91ZD4); assay: co-IP; endogenous, after cellular fractionation: LPS-treated PEMs, cytoplasmic and cell membrane fractions; VANGL2 pulled down by IP; immunoblot
T4 sequence: T1 sequence with G38S, T114I, V194I

Flag-OPTN (optineurin) = Flag-OPTN (optineurin) (UniProt Q96CV9); assay: co-IP; exogenous: tagged plasmids co-transfected into HEK293T for 24 h (some panels with CQ 50 μM 6 h, VANGL2 siRNA or VANGL2 overexpression); whole-cell lysates with anti-Flag or anti-Myc agarose beads; washed 5 times with low-salt lysis buffer (150 mM NaCl, 1% Triton X-100); immunoblot
Flag-VANGL2 [9] = target: T1, Flag-VANGL2; assay: as above
Flag-VANGL2 [10] = target: T1, Flag-VANGL2; assay: co-IP; exogenous, after cellular fractionation: HA-NLRP3 and Flag-VANGL2 in HEK293T, membrane and cytoplasmic fractions; Flag pulled down; immunoblot (short and long exposure)
[11] = target: T4, VANGL2, endogenous in mouse peritoneal macrophages (mouse (endogenous in peritoneal macrophages)); assay: co-IP; endogenous: mouse PEMs (WT or Vangl2 ΔM/ΔM) treated with LPS 100 ng/ml 6 h (some panels with CQ 50 μM); whole-cell lysates incubated overnight with antibody plus Protein A/G beads; immunoblot
[12] = target: NLRP3, endogenous in mouse peritoneal macrophages (mouse (endogenous in peritoneal macrophages)) (UniProt Q8R4B8); assay: as above
Flag-VANGL2 [13] = target: T1, Flag-VANGL2; assay: co-IP; exogenous: tagged plasmids co-transfected into HEK293T for 24 h (some panels with CQ 50 μM 6 h, VANGL2 siRNA or VANGL2 overexpression); whole-cell lysates with anti-Flag or anti-Myc agarose beads; washed 5 times with low-salt lysis buffer (150 mM NaCl, 1% Triton X-100); immunoblot; remark: listed apart in the source
[14] = target: Flag-NLRP3 (NLR family pyrin domain containing 3) (UniProt Q96P20); assay: as above; remark: listed apart in the source

Molecule: Flag-NLRP3 (NLR family pyrin domain containing 3) (from UniProt Q96P20 1-1036)
- binding (Flag-VANGL2 [1]): binds

Molecule: Myc-OPTN (from UniProt Q96CV9 1-577)
- binding [2]: binds
- binding [3]: binds

Molecule: Flag-OPTN (optineurin) (from UniProt Q96CV9 1-577)
- binding (Flag-VANGL2 [1]): binds
- binding [4]: no binding
- binding [5]: binds

Molecule: HA-OPTN (from UniProt Q96CV9 1-577)
- binding (Flag-NLRP3 K823R): binds
- binding [6]: binds

Molecule: NLRP3, endogenous in mouse peritoneal macrophages (from UniProt Q8R4B8 1-1033)
- binding [7]: binds
- binding [8]: binds

Molecule: HA-NLRP3 (from UniProt Q96P20 1-1036)
- binding (Flag-OPTN (optineurin)): binds
- binding (Flag-VANGL2 [9]): binds
- binding (Flag-VANGL2 [10]): binds

B1: MARCH8, endogenous in mouse peritoneal macrophages (enzyme, UniProt Q9DBD2 1-286)
chain: MSMPLHQISAIPSQDAISARVYRSKTKDKEQNEKTLGHSMSHPSNISKAGSSPPSTTAPVSAFSRTSVTPSNQDICRICHCEGDDESPLITPCHCTGSLHFVHQACLQQWIKSSDTRCCELCKYEFIMETKLKPLRKWEKLQMTASERRKIMCSVTFHVIAITCVVWSLYVLIDRTAEEIKQGQVTGILEWPFWTKLVVVAIGFTGGLLFMYVQCKVYLQLWKRLKAYNRVIYVQNCPETSKKNIFEKSALTEPTLENKEGHGMCHSTTNSSCTEPEDTGAEIINV
- binding [11]: binds
- binding [12]: binds

B2: GFP-MARCH8 (enzyme, UniProt Q5T0T0 1-291)
chain: T3 sequence
- binding (Flag-VANGL2 [13]): binds
- binding [14]: binds
- binding [2]: binds
- binding [3]: binds

B3: Flag-MARCH8 (recombinant, purified) (enzyme, UniProt Q5T0T0 1-291)
chain: T3 sequence
- binding (Flag-VANGL2 [1]): binds
- binding [5]: binds

B4: VANGL2, endogenous in mouse peritoneal macrophages (protein, UniProt Q91ZD4 1-521)
chain: T1 sequence with G38S, T114I, V194I
- binding [12]: binds

Reference: article PMC11790156
